According to PMC10073093, “TGFBI remodels adipose metabolism by regulating the Notch-1 signaling pathway” (Experimental & Molecular Medicine, 2023):
Results are given in words; binding and its absence hold for the method and conditions named. Binding seen in cells or lysates may run through a third protein. Some results given as binding are weak or reduced against the parent protein; the word gives no strength.

By UniProt entry, the sequences of proteins in these tests, tags left out. Residues count along the entry.
UniProt Q01705, residues 19-2531: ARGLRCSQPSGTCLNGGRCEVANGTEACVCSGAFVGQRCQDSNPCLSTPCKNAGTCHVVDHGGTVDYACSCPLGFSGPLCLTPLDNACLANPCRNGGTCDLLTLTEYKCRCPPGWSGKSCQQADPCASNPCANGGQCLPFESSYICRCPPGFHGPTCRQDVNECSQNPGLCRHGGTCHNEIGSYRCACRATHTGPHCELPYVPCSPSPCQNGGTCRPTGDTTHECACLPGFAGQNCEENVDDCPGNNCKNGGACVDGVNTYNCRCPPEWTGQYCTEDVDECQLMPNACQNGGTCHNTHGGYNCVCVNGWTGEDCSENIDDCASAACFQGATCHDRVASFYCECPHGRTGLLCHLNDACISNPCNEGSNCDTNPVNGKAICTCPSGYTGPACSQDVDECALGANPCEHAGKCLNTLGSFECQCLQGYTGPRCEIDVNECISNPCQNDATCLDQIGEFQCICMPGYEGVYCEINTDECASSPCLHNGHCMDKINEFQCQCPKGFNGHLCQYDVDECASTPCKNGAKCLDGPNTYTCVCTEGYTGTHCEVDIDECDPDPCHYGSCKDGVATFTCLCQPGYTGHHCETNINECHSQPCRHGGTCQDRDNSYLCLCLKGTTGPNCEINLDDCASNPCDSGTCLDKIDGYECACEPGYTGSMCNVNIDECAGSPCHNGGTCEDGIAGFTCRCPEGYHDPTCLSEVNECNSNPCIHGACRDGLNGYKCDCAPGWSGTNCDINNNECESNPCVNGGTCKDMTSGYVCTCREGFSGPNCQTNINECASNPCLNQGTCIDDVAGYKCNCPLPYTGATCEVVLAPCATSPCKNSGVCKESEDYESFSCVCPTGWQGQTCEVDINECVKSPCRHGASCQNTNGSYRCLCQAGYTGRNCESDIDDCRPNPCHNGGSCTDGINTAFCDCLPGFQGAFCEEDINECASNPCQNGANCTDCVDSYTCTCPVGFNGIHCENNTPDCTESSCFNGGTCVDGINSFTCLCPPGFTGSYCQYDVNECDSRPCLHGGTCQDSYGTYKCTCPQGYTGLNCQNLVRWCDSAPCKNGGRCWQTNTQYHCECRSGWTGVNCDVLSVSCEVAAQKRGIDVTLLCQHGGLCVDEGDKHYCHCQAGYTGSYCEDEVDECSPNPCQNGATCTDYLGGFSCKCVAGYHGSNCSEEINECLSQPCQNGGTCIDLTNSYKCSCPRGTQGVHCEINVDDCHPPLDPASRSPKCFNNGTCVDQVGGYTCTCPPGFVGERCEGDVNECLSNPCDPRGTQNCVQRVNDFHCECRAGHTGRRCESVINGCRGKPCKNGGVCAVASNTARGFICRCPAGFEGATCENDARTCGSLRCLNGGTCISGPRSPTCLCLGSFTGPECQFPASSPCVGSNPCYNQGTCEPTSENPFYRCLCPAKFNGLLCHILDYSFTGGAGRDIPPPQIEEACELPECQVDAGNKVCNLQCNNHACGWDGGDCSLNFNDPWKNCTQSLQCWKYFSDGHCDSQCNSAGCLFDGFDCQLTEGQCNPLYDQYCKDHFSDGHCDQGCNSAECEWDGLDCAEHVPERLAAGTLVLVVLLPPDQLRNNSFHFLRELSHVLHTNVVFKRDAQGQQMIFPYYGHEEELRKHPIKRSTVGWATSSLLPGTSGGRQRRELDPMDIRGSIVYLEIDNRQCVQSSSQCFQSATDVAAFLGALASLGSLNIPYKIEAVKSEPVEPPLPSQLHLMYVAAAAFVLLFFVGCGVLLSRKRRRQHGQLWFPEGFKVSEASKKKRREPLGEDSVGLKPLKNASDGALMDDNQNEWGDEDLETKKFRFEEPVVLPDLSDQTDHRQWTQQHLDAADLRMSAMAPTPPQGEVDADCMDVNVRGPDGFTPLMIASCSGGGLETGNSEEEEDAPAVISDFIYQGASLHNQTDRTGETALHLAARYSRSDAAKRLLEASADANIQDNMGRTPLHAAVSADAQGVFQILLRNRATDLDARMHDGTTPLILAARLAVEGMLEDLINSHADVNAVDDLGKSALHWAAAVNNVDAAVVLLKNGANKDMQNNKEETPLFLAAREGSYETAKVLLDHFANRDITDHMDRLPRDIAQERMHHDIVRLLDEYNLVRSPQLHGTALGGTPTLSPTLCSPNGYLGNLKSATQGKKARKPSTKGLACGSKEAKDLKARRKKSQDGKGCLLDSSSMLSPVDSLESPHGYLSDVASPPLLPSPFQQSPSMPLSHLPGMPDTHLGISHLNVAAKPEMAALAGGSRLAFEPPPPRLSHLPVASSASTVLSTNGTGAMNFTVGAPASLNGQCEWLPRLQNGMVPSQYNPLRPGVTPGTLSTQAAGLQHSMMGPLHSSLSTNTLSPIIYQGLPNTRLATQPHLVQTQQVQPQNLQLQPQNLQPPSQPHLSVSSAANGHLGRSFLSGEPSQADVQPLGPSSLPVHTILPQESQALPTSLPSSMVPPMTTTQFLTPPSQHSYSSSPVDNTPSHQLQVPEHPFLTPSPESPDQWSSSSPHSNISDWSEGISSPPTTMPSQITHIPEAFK

Molecular target: Notch-1 (endogenous in 3T3-L1 cells) (mouse (endogenous in 3T3-L1)) (UniProt Q01705)
Test: co-IP; 3T3-L1 preadipocytes treated with recombinant TGFBI (20 µg/ml) for 24 h; RIPA buffer with 10 mM N-ethylmaleimide; primary antibody overnight at 4 °C, Protein G agarose beads; western blot; only the binder purified

binding: binds
B1: Recombinant TGFBI (transforming growth factor-beta-induced protein) (protein, UniProt Q15582 24-683)
chain: GPAKSPYQLVLQHSRLRGRQHGPNVCAVQKVIGTNRKYFTNCKQWYQRKICGKSTVISYECCPGYEKVPGEKGCPAALPLSNLYETLGVVGSTTTQLYTDRTEKLRPEMEGPGSFTIFAPSNEAWASLPAEVLDSLVSNVNIELLNALRYHMVGRRVLTDELKHGMTLTSMYQNSNIQIHHYPNGIVTVNCARLLKADHHATNGVVHLIDKVISTITNNIQQIIEIEDTFETLRAAVAASGLNTMLEGNGQYTLLAPTNEAFEKIPSETLNRILGDPEALRDLLNNHILKSAMCAEAIVAGLSVETLEGTTLEVGCSGDMLTINGKAIISNKDILATNGVIHYIDELLIPDSAKTLFELAAESDVSTAIDLFRQAGLGNHLSGSERLTLLAPLNSVFKDGTPPIDAHTRNLLRNHIIKDQLASKYLYHGQTLETLGGKKLRVFVYRNSLCIENSCIAAHDKRGRYGTLFTMDRVLTPPMGTVMDVLKGDNRFSMLVAAIQSAGLTETLNREGVYTVFAPTNEAFRALPPRERSRLLGDAKELANILKYHIGDEILVSGGIGALVRLKSLQGDKLEVSLKNNVVSVNKEPVAEPDIMATNGVVHVITNVLQPPANRPQERGDELADSALEIFKQASAFSRASQRSVRLAPVYQKLLERMKH
